From publication doi:10.1101/775536
No constants are given. Whether binding was seen depends on the method and setting. In cells and extracts the contact can be indirect. Some entries that bind do so weakly or less than the wild type. For some assays here: Tags and fused reporters may be left off the sequences shown. One block for each molecule: values may come before it.

Experiments:
[1] = target: HlpA-SmBit (S. pneumoniae D39V); assay: split reporter
[2] = target: CcrZ-LgBit (S. pneumoniae D39V); assay: split reporter

Molecule: HlpA-SmBit (from UniProt A0ACD7PRL6 1-91)
binding [1]: binds

binding [2]: no binding
B1: YabA (split-luciferase fusion) (protein, UniProt B1IBA4 1-105)
chain: MDKKELFDALDDFSQQLLVTLADVEAIKKNLKSLVEENTALRLENSKLRERLGEVEADAPVKAKHVRESVRRIYRDGFHVCNDFYGQRREQDEECMFCDELLYRE
